These are yes or no findings as the source states them, for the method shown. Some results given as binding are weak or reduced against the parent protein; the word gives no strength.
How the values were obtained:
NOV002 = experiment: solution equilibrium titration (SET): NOV002 held at 10 pM, human β-klotho (KLB) titrated in solution, y axis 'Signal'
NOV001 = experiment: solution equilibrium titration (SET): NOV001 held at 10 pM, human β-klotho (KLB) titrated in solution, y axis 'Signal'
NOV004 = experiment: solution equilibrium titration (SET): NOV004 held at 10 pM, human β-klotho (KLB) titrated in solution, y axis 'Signal'

By UniProt entry, the sequences of proteins in these tests, tags left out. Where a name states a change or a piece, a line headed by the entry shows the natural chain unless it says otherwise.
UniProt Q86Z14: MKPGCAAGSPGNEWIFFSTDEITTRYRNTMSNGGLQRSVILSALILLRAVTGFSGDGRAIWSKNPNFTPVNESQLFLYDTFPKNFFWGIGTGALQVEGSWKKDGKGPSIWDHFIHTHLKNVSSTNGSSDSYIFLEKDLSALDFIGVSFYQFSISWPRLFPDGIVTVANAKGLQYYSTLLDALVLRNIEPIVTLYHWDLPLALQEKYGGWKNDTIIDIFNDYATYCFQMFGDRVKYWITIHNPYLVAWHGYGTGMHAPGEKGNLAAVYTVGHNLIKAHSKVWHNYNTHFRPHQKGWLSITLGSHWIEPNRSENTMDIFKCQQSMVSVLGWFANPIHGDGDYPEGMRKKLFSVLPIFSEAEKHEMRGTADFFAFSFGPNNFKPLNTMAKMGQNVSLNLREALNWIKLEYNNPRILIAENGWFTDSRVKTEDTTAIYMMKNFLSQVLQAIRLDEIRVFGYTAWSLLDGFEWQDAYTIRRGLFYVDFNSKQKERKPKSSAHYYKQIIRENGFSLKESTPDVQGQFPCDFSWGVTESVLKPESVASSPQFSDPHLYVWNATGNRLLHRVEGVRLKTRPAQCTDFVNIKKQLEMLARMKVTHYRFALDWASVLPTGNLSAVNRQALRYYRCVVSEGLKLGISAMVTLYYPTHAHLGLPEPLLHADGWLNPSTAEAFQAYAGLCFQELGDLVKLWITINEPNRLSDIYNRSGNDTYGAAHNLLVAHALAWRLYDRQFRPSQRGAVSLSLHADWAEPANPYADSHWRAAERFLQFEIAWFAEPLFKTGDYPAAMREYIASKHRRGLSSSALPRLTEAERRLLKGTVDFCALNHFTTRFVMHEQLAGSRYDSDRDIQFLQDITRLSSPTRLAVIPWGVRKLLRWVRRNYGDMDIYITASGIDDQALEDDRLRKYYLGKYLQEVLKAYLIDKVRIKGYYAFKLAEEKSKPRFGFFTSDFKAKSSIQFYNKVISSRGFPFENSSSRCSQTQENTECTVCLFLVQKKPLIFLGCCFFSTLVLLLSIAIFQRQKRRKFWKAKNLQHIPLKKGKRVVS

- binding (NOV002): binds
- binding (NOV001): binds
- binding (NOV004): binds
Substance: human β-klotho (from UniProt Q86Z14 52-997) (receptor)

From patent publication US20200087392A1
